From patent US7666619B2, “Compounds and methods for regulating bacterial growth and pathogenesis” (Princeton University, priority 2000, dated 2010)
In brackets after ≈: the same amount, converted by molar mass.

System: Staphylococcus aureus ATCC 25923
Assay: Antibiotic susceptibility assay (NCCLS broth microdilution)
Type: cell-based
Details: ATCC25923, antibiotic alone
Experimental: Antimicrobial susceptibility testing was conducted according to the National Committee for Clinical Laboratory Standards (NCCLS) reference method “Broth Dilution Procedure (Microdilution)” published January 1977 (UPDATE VERSION). The method yields a minimum inhibitory dose (MIC) required for complete inhibition of bacterial growth. MICs were determined using a dilution series of antibiotic, in which all of the wells contained a constant concentration of the inhibitor compound was maintained. In addition, before the instant susceptibility tests were performed, the inhibitor compounds were tested in the appropriate inhibitor screens (See, for example, FIG. 32 for the AI-2 inhibitor 2-ethyl-4-hydroxy-5-methyl-3(2H)-furanone). […] Experiments were conducted in 96 well microtiter plates using a final volume of 0.1 ml/well. Assays were conducted using either Mueller-Hinton broth, Todd-Hewitt broth, or Nutrient Broth (Difco). The bacterial innoculum was prepared from a log phase overnight culture of Streptococcus pyogenes ATCC 19615 or Staphylococcus aureus ATCC 25923. […] MIC values were determined by spectrophotometric measurements of absorbance at 600 nm. […] Fold-changes in MIC concentration were determined by comparing the MIC for antibiotic and quorum inhibitor compounds with the MIC measured using antibiotic alone.

Question: How did the MIC turn out when `CC1(C)S[C@@H]2[C@H](NC(=O)[C@H](N)c3ccccc3)C(=O)N2[C@H]1C(=O)O` [ampicillin] was run?
Answer: 1.6 µg/mL (≈ 4.58 µM)
